# Experimental data as given in the supplement of paper PMC6411743.
# ± gives the standard deviation of the averaged measurements. This is a selection; strong and weak results do not stand in their true shares.
# Experiments:
# Experiment in all cases: NP40-soluble protein abundance relative to vehicle (solubility fold change) (ratio); higher = more soluble protein in presence of AMP-PNP
# NKIRAS1 = target: T1, NKIRAS1 (UniProt Q9NYS0)
# T1 sequence (whole entry): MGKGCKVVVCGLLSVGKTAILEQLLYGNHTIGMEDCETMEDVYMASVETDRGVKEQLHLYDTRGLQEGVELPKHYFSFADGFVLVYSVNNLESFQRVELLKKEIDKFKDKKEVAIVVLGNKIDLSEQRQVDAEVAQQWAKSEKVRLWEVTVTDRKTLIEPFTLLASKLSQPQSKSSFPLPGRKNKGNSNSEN
# How it was run: (§1)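 Data come from three independent experiments in which Dounce-homogenised Jurkat crude lysate was treated at eight concentrations from 0.1 to 10 mM. Treatment ran 10 min at room temperature and then 3 min at 37 °C, after which 0.8% NP40 and benzonase were added for 60 min at 4 °C before ultracentrifugation. The supernatant underwent TMT labelling and LC-MS/MS, and vsn-normalised intensities were expressed as fold change against the detergent-processed vehicle in each replicate.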
# RBM12 = target: T2, RBM12 (UniProt Q9NTZ6)
# T2 sequence (whole entry): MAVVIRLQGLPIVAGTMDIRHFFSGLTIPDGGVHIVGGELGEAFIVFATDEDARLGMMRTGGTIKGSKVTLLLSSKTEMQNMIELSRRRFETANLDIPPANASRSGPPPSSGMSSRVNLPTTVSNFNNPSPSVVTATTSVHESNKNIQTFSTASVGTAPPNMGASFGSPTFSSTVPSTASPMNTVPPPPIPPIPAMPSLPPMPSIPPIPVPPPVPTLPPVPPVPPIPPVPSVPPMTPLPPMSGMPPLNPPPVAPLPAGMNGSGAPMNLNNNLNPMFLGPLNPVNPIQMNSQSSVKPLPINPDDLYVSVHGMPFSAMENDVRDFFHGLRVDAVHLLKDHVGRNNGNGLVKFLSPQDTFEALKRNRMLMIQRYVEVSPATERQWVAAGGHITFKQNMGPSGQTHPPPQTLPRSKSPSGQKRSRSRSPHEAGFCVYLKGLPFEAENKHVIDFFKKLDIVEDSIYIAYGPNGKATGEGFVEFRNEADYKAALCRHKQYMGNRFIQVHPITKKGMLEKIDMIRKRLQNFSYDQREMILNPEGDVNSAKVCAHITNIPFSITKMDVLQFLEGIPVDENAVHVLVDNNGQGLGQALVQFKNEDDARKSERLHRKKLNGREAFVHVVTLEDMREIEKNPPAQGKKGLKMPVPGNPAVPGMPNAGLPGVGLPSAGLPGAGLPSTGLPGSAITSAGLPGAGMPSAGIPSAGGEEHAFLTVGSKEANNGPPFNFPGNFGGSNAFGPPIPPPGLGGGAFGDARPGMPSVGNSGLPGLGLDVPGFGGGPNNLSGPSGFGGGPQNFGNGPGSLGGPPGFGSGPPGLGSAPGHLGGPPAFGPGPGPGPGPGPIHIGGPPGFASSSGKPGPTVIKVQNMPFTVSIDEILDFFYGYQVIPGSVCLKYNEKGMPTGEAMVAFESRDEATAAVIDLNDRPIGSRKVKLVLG
# How it was run: as §1
# SACM1L = target: T3, SACM1L (UniProt Q9NTJ5)
# T3 sequence (whole entry): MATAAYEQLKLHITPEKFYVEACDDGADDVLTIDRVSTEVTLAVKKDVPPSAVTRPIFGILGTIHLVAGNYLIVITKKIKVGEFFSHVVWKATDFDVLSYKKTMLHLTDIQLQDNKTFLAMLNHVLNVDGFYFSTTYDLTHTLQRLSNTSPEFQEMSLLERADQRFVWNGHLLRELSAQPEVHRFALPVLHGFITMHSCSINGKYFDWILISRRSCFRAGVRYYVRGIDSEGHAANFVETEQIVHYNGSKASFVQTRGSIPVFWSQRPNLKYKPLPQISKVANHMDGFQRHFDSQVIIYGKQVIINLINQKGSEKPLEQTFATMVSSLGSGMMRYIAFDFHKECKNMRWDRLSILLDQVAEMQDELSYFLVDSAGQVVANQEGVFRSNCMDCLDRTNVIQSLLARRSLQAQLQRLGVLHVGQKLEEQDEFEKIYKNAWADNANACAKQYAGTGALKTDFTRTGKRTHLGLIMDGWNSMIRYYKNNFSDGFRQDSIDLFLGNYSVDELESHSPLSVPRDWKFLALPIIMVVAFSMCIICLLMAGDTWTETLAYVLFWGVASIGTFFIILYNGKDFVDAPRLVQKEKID
# How it was run: as §1
# TFIP11 = target: T4, TFIP11 (UniProt Q9UBB9)
# T4 sequence (whole entry): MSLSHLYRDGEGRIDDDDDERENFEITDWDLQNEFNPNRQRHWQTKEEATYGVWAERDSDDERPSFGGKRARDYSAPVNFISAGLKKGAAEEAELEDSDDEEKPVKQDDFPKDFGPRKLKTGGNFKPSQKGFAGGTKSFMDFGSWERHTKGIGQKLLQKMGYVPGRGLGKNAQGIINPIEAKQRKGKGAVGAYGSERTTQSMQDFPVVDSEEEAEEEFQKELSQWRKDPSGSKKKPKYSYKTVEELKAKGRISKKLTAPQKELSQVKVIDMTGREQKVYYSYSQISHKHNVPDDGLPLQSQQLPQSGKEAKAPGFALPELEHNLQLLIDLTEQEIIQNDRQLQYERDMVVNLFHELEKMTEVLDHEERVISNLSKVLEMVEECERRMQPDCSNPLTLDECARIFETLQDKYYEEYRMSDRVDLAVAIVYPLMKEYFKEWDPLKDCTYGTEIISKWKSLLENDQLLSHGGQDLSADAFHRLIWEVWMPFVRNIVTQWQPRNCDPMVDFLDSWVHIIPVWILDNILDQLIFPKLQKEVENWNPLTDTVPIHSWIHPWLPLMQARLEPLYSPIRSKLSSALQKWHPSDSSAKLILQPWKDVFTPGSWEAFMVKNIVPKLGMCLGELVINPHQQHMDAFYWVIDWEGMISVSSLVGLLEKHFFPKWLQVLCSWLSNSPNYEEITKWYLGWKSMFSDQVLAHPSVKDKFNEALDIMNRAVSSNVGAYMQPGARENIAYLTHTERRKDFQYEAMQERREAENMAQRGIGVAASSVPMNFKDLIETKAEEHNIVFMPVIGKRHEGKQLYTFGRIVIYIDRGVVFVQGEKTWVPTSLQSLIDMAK
# How it was run: as §1
# [1] = target: T5, UniProt Q9NQ86-4|E9PBG3 and related entries
# T5 sequence (whole entry): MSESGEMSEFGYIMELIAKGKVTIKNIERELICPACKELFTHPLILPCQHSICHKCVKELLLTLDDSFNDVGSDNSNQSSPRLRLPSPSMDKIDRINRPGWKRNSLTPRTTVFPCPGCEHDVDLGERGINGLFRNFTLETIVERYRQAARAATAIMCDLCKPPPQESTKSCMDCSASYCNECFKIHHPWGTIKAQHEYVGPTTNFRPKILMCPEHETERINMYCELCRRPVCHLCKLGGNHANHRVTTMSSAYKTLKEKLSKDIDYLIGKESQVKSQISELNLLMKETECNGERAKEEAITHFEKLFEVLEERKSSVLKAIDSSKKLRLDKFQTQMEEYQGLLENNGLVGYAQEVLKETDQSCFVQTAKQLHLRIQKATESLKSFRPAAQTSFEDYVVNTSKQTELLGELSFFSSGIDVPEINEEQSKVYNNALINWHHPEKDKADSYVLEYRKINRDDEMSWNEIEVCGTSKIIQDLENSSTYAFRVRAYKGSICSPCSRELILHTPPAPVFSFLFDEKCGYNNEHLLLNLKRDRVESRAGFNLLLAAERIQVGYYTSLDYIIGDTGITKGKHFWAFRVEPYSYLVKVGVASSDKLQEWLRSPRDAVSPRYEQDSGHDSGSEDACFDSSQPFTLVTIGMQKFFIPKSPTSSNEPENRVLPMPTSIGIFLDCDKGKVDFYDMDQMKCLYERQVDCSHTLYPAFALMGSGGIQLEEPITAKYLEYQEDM
# How it was run: as §1
smiles,measurement,setting,value
Nc1ncnc2c1ncn2[C@@H]1O[C@H](COP(=O)(O)OP(=O)(O)NP(=O)(O)O)[C@@H](O)[C@H]1O [adenylyl imidodiphosphate],NP40-soluble protein abundance,NKIRAS1; concentration: 2mM,1.025 ± 0.0079
same,NP40-soluble protein abundance,NKIRAS1; concentration: 4mM,0.981 ± 0.024
same,NP40-soluble protein abundance,NKIRAS1; concentration: 6mM,0.988 ± 0.027
same,NP40-soluble protein abundance,NKIRAS1; concentration: 8mM,1 ± 0.018
same,NP40-soluble protein abundance,NKIRAS1; concentration: 10mM,0.9796 ± 0.0011
same,NP40-soluble protein abundance,RBM12; concentration: 1mM,0.959 ± 0.021
same,NP40-soluble protein abundance,RBM12; concentration: 2mM,0.976 ± 0.048
same,NP40-soluble protein abundance,RBM12; concentration: 4mM,0.976 ± 0.028
same,NP40-soluble protein abundance,RBM12; concentration: 6mM,1.01 ± 0.036
same,NP40-soluble protein abundance,RBM12; concentration: 8mM,0.986 ± 0.036
same,NP40-soluble protein abundance,RBM12; concentration: 10mM,1.011 ± 0.0088
same,NP40-soluble protein abundance,SACM1L; concentration: 1mM,1.01 ± 0.049
same,NP40-soluble protein abundance,SACM1L; concentration: 2mM,0.916 ± 0.062
same,NP40-soluble protein abundance,SACM1L; concentration: 4mM,0.978 ± 0.056
same,NP40-soluble protein abundance,SACM1L; concentration: 6mM,0.937 ± 0.032
same,NP40-soluble protein abundance,SACM1L; concentration: 8mM,0.966 ± 0.035
same,NP40-soluble protein abundance,SACM1L; concentration: 10mM,0.91 ± 0.039
same,NP40-soluble protein abundance,TFIP11; concentration: 1mM,1.01 ± 0.028
same,NP40-soluble protein abundance,TFIP11; concentration: 2mM,1.01 ± 0.033
same,NP40-soluble protein abundance,TFIP11; concentration: 4mM,1.07 ± 0.042
same,NP40-soluble protein abundance,TFIP11; concentration: 6mM,1.08 ± 0.05
same,NP40-soluble protein abundance,TFIP11; concentration: 8mM,1.09 ± 0.015
same,NP40-soluble protein abundance,TFIP11; concentration: 10mM,1.13 ± 0.039
same,NP40-soluble protein abundance,[1]; concentration: 1mM,0.952 ± 0.04
same,NP40-soluble protein abundance,[1]; concentration: 2mM,0.976 ± 0.047
same,NP40-soluble protein abundance,[1]; concentration: 4mM,0.994 ± 0.042

# Retrieved one by one from the entries so far:
smiles,measurement,setting,value
Nc1ncnc2c1ncn2[C@@H]1O[C@H](COP(=O)(O)OP(=O)(O)NP(=O)(O)O)[C@@H](O)[C@H]1O [adenylyl imidodiphosphate],NP40-soluble protein abundance,RBM12; concentration: 10mM,1.011 ± 0.0088
same,NP40-soluble protein abundance,SACM1L; concentration: 8mM,0.966 ± 0.035
